# Measured values published in PubChem BioAssay AID2662 (National Center for Advancing Translational Sciences (NCATS), 2010).
# Sequences of proteins named here, by UniProt entry; tags and fusion partners are left off.
# UniProt Q03164, whole entry, looked up: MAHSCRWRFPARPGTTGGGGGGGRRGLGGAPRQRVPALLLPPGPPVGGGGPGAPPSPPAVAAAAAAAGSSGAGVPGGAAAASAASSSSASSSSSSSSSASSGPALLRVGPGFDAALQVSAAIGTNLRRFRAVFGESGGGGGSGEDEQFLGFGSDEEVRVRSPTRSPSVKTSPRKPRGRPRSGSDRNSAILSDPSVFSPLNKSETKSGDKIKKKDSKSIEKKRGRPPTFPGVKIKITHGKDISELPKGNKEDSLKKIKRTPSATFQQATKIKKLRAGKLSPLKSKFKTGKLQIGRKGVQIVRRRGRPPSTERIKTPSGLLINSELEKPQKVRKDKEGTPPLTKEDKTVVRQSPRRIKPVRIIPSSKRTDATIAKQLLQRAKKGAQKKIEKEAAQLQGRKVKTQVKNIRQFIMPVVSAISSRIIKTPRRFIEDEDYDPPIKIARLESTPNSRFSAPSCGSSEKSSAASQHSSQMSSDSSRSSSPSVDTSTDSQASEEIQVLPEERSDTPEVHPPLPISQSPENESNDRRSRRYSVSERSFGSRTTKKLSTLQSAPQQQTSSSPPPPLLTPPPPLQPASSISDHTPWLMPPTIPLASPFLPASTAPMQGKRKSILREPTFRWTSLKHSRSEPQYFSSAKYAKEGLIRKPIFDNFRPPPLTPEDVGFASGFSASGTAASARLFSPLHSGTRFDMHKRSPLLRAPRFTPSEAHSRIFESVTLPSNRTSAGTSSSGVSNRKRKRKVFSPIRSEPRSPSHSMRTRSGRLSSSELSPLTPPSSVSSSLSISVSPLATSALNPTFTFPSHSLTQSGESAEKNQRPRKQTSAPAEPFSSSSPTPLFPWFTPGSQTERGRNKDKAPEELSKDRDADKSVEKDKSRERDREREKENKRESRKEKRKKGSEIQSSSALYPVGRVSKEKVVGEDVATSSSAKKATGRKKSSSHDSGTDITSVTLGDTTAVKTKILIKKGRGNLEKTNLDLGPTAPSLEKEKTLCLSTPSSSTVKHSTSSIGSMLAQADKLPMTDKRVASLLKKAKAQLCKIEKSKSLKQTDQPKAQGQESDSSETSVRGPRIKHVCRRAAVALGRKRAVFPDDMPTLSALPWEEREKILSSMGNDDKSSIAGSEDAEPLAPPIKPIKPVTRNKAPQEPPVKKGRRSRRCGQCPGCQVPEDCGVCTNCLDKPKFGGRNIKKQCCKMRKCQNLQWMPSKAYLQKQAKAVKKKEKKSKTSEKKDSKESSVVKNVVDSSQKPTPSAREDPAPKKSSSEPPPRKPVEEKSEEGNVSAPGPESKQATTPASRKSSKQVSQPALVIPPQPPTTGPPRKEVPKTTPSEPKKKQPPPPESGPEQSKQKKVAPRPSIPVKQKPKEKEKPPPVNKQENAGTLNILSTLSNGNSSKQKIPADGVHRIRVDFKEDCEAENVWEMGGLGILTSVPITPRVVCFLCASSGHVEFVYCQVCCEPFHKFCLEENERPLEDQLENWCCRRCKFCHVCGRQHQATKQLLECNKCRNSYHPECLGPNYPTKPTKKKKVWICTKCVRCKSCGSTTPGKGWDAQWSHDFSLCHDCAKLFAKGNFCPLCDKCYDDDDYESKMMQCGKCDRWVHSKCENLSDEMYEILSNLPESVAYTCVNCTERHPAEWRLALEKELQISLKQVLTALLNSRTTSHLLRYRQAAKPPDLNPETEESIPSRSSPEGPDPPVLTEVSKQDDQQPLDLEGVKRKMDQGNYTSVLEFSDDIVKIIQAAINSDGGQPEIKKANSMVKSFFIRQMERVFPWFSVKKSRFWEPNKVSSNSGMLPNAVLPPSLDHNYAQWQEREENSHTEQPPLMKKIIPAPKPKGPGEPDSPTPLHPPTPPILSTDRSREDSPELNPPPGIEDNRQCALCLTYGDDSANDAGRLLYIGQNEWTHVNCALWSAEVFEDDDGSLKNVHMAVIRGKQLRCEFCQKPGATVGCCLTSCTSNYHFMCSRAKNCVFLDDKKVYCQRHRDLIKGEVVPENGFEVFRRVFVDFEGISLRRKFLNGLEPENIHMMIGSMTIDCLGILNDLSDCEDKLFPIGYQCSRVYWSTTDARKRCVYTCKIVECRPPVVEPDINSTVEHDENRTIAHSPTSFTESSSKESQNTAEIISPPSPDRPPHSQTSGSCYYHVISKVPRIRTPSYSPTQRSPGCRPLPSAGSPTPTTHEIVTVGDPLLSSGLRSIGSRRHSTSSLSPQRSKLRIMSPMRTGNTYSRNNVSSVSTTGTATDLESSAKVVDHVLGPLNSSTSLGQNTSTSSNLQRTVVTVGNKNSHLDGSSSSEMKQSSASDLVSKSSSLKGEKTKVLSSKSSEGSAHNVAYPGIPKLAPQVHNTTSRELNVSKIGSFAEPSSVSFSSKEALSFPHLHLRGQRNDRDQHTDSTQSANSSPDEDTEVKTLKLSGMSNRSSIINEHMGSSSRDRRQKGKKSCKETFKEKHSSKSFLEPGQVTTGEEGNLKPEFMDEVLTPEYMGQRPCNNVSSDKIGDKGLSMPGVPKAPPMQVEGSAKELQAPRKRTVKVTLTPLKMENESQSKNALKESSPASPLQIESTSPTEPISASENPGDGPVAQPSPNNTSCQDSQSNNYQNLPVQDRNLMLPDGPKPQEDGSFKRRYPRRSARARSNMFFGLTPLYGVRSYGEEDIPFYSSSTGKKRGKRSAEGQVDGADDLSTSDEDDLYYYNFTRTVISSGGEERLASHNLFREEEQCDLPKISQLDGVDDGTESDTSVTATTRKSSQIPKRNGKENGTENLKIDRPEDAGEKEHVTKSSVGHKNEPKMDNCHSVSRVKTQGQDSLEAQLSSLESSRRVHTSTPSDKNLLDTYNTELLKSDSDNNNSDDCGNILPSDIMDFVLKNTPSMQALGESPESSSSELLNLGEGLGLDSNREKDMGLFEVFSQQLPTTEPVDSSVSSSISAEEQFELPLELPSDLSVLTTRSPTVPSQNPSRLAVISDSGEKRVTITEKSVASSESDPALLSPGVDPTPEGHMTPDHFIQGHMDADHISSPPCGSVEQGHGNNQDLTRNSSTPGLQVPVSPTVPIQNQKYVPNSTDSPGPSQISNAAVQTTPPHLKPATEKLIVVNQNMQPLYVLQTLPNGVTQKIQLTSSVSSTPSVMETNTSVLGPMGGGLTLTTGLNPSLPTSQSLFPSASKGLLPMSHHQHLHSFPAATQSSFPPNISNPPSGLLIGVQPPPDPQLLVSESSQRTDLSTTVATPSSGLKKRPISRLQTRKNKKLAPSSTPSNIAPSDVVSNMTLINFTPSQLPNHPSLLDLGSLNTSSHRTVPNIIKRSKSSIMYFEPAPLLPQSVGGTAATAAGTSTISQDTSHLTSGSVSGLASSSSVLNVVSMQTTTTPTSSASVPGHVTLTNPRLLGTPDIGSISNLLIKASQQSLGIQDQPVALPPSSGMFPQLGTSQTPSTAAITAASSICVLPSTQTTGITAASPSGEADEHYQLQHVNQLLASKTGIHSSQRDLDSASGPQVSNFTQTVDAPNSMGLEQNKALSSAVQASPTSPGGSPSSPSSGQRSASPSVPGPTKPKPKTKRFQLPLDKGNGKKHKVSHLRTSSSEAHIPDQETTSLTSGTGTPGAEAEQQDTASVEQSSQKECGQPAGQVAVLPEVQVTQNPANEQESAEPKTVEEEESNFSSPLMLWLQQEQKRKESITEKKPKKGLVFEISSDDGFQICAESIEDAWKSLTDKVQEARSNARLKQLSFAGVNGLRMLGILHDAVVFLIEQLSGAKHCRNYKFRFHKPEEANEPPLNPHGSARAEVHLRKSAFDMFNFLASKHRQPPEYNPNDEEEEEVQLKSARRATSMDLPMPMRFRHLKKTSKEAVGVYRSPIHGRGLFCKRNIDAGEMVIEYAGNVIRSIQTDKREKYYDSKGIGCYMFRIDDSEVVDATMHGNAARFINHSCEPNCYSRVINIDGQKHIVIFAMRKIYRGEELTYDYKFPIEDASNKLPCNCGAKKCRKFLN
# In all, about 290,000 compounds went through this assay and about 110 (0.038%) were called active. The inconclusive results got no clear call from the source; some entries with a clear call stand among them for comparison. Calls follow the shape of the dose curve; as a rule, active = well fitted inhibition curve with a large enough effect in the polarisation, with a control signal flat (not every such curve was filed as active); inconclusive = small, poorly fitted or top-dose-only effect, or effect the other way, or a change in a side signal; inactive = no such curve, though single readings can be large or run the other way; the % refers to the polarisation. Where the call is inconclusive, the potency comes from a doubtful curve fit. “Side channel” marks fits to a control or component signal instead of the main read-out.
# Target: Histone-lysine N-methyltransferase 2A (Homo sapiens) (UniProt Q03164)
# Test: qHTS Fluorescence Polarization Assay for Inhibitors of MLL CXXC domain - DNA interaction
# Conditions: MLL-CXXC / FITC-HOXA9 DNA fluorescence polarization; activity change, negative = inhibition: at 115 µM (top of the series)
# Procedure, shortened: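 Purified MLL-CXXC (added from a 7 uM solution) was preincubated 5 min at ambient with pinned compounds in 50 mM Tris-HCl pH 7.5, 50 mM NaCl, 1 mM DTT, 0.05% BSA. Fluorescein-labeled HOX-A9 DNA (50 nM solution) followed, 30 min, then polarization read.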
# Potency is read from the fitted curve at half-maximal effect.
SMILES,"activity change, negative = inhibition",Potency
CCN(C(=O)C(C)N1C(=O)/C(=C/c2ccco2)SC1=S)C1CCS(=O)(=O)C1 (stereo not drawn),inactive: 11.9%,–
CCCOC1CCCN(C(=O)c2ccc(OC3CCN(Cc4ccccn4)CC3)cc2)C1 (stereo not drawn),–,"inconclusive: 15.8 µM [quencher, side channel, single point]"
CCc1cc[n+](C2=C([O-])c3ccccc3C(=O)/C2=N\S(=O)(=O)c2cccs2)cc1,–,"inconclusive: 70.8 µM [inhibitor, single point]"
CNS(=O)(=O)c1cc2c3c(cccc3c1)C(=O)NC2=O,inactive: 38.4%,–
Cc1cccc(NC(=S)NCc2ccc3c(c2)cc(C)n3C)c1C,inactive: -7.27%,–
CCc1nnc(NC(=O)CSc2nc(-c3ccccc3)cc(-c3ccc(OC)cc3)c2C#N)s1,–,"inconclusive: 39.8 µM [fluorescent, side channel, single point]"
CN1CCc2c(sc(N)c2C(N)=O)C1,–,"inconclusive: 1.41 µM [fluorescent, side channel, full curve, poor fit]"
COc1ccccc1C1CCN(C(=O)c2cccs2)CC1,inactive: 3.24%,–
C/C(=N/NC(=O)CNC(=O)c1ccccn1)c1ccc([N+](=O)[O-])cc1,–,"inconclusive: 11.2 µM [fluorescent, side channel, partial curve]"
CC(=O)Nc1cccc(C(=O)/C=C/c2ccc(N(C)C)cc2)c1,–,"inconclusive: 8.91 µM [fluorescent, side channel, full curve]"
CCSc1nnc(NC(=O)CSc2nnc(CNC(=O)c3ccccc3F)o2)s1,–,"inconclusive: 2 µM [fluorescent, side channel, full curve]"
S=c1[nH]nc(-c2ccccn2)n1/N=C/c1ccc(Cl)cc1,inactive: -9.51%,–
Cc1cccc(N=c2oc3cc(O)ccc3cc2C(N)=O)c1,–,"inconclusive: 70.8 µM [fluorescent, side channel, partial curve, poor fit]"
CC(C)(C)c1cc(NCCCn2ccnc2)n2ncc(-c3ccc(Cl)cc3)c2n1,–,"inconclusive: 31.6 µM [quencher, partial curve]"
O=C(NCc1ccccc1)c1ccc(Br)cc1Br,–,"inconclusive: 31.6 µM [fluorescent, side channel, partial curve]"
CCCCCOc1ccc(NC(=O)CSc2cccc3cccnc23)cc1,inactive: 9.68%,–
Cc1ccsc1/C=C1/C(=O)NN(c2ccccc2)C1=O,–,"inconclusive: 31.6 µM [inhibitor, single point]"
COc1ccccc1NC(=O)CSc1nncn1-c1ccccc1,–,"inconclusive: 3.16 µM [quencher, side channel, full curve, poor fit]"
COc1ccc(NC(=O)CSc2nnc(C)c(=O)n2N)cc1,–,"inconclusive: 10 µM [fluorescent, side channel, single point]"
Cn1c(N=Nc2ccc(N3CCOCC3)cc2)[n+](C)c2ccccc21,–,"inconclusive: 63.1 µM [quencher, side channel, single point]"
COc1cc(/C=C2/C(=O)ON=C2c2ccccc2)ccc1O,–,"inconclusive: 15.8 µM [inhibitor, single point]"

# As a working copy, some entries already given.
SMILES,"activity change, negative = inhibition",Potency
S=c1[nH]nc(-c2ccccn2)n1/N=C/c1ccc(Cl)cc1,inactive: -9.51%,–
Cc1cccc(N=c2oc3cc(O)ccc3cc2C(N)=O)c1,–,"inconclusive: 70.8 µM [fluorescent, side channel, partial curve, poor fit]"

# Following part.

SMILES,"activity change, negative = inhibition",Potency
COc1ccc(N2CCN(Cc3nc4sc(C)c(C)c4c(=O)[nH]3)CC2)cc1,–,"inconclusive: 89.1 µM [inhibitor, single point]"
Cn1c(SCC(=O)c2c(N)n(C)c(=O)n(C)c2=O)nnc1-c1ccccc1,–,"inconclusive: 2.82 µM [fluorescent, side channel, full curve]"
COc1ccc(C(=O)OCCNC(=O)c2ccncc2)cc1OC,–,"inconclusive: 70.8 µM [quencher, side channel, single point]"
Cc1cc(C)c(C(=O)N2CCC(N3CCC(C(=O)NC(C)C)CC3)CC2)o1,–,"inconclusive: 70.8 µM [fluorescent, side channel, single point]"
COc1cccc(CN2CCc3ccc(NC(=O)CCc4ccc(C)cc4)cc3C2)c1O,inactive: 1.6%,–
COc1ccc(C(=O)N2CCc3cc(OC)c(OC)cc3C2c2cccc([N+](=O)[O-])c2)cc1 (stereo not drawn),–,"inconclusive: 1.26 µM [fluorescent, side channel, partial curve, poor fit]"
O=C1ON=C(c2ccc([N+](=O)[O-])cc2)/C1=C/c1ccccc1O,–,"inconclusive: 31.6 µM [inhibitor, single point]"
COc1ccc(S(=O)(=O)N2CCOC2CNC(=O)C(=O)NCc2ccc(F)cc2)cc1 (stereo not drawn),–,"inconclusive: 10 µM [fluorescent, side channel, full curve]"
CCC(C)c1ccc(S(=O)(=O)N2CCN(C(=O)COc3ccc4c(C)cc(=O)oc4c3)CC2)cc1 (stereo not drawn),inactive: -9.94%,–
COC(=O)N/N=C\c1c(C)[nH]n(-c2ccccc2)c1=O,inactive: -10.7%,–
COCC(=O)n1nc(-c2ccccc2)nc1NCc1ccccc1,–,"inconclusive: 70.8 µM [inhibitor, single point]"
Cc1nnc(SCC(=O)Nc2nccs2)o1,inactive: 2.37%,–
COc1ccccc1N1C(=O)C2C(C(=O)c3ccccc3)=NN(c3ccc(C)cc3)C2C1=O (stereo not drawn),–,"inconclusive: 35.5 µM [fluorescent, side channel, partial curve]"
COc1ccc(C2c3c(ncn(CCN4CCOCC4)c3=N)Oc3ccc4ccccc4c32)cc1 (stereo not drawn),–,"inconclusive: 44.7 µM [quencher, side channel, partial curve]"
Cc1cc(O)c(C(=O)/C=C/c2ccccc2Br)c(=O)o1,–,"inconclusive: 22.4 µM [inhibitor, partial curve]"
Cc1cc(NS(=O)(=O)c2ccc(NC(=O)COc3ccccc3Cl)cc2)no1,inactive: 14.5%,–
CCn1c(O)c2ccc(C(=O)N=NC(=O)c3ccccc3)cc2c1O,–,"inconclusive: 15.8 µM [quencher, side channel, single point]"
COc1ccc(NC(=O)CC2C(=O)N(C)C(=S)N2CCc2ccccc2F)cc1 (stereo not drawn),–,"inconclusive: 5.62 µM [quencher, side channel, single point]"
COC(=O)c1ccc(CNCC(=O)Nc2ccc(C(=O)OC)cc2)cc1,inactive: 7.94%,–
CCOc1ccc(C(=O)NCC(=O)NCCCn2nc(C)cc2C)cc1OCC,–,"inconclusive: 14.1 µM [quencher, side channel, single point]"
COc1ccc(Nc2nc(N)c([N+](=O)[O-])c(N3CCOCC3)n2)cc1,inactive: -6.61%,–

SMILES,"activity change, negative = inhibition",Potency
O=C(Nc1ccccc1)c1ccc(NC(=O)C2CC2)cc1,inactive: 4.33%,–
CCOc1ccc2nc(NC(=O)c3ccccn3)sc2c1,–,"inconclusive: 39.8 µM [inhibitor, single point]"
CCCN1C(=O)/C(=C/c2c(N3CCNC(=O)C3CC(=O)OCC)nc3c(C)cccn3c2=O)SC1=S (stereo not drawn),–,"inconclusive: 7.08 µM [fluorescent, side channel, full curve]"
COc1ccc(CC(=O)NNC2=Nc3cccc4cccc2c34)cc1OC,–,"inconclusive: 50.1 µM [fluorescent, side channel, partial curve]"
CC(C)N1CC=C2C(C#N)=C(N)C(C#N)(C#N)C(c3ccccc3)C2C1 (stereo not drawn),–,"inconclusive: 89.1 µM [inhibitor, single point]"
Cc1ccc(C(=O)c2c3ccc(C(F)(F)F)cc3[n+]([O-])n2CCC(N)=O)cc1,inactive: -2.49%,–
COc1cccc(CNS(=O)(=O)c2ccc(S(=O)(=O)NC3CC3)cc2)c1,inactive: 3.62%,–
COC(=O)CCC(NC(=O)c1cc(C)oc1C)C(=O)OC (stereo not drawn),inactive: 4.22%,–
O=C(O)CC(CNC(=O)C1CCCN1C(=O)OCc1ccccc1)c1ccccc1 (stereo not drawn),–,"inconclusive: 1.58 µM [fluorescent, side channel, full curve]"
O=C(Cc1cc(=O)[nH][nH]1)N/N=C/C(Cl)=C/c1ccccc1,–,"inconclusive: 50.1 µM [inhibitor, single point]"
CC(=O)C1(O)Cc2c(O)c3c(c(O)c2C(OC2CC(N)C(O)C(C)O2)C1)C(=O)c1c(O)cccc1C3=O (stereo not drawn),–,"inconclusive: 39.8 µM [fluorescent, side channel, full curve]"
Cn1c2ccccc2c(=O)c2ccc(C#CC3(N)CCCCC3)cc21,–,"inconclusive: 35.5 µM [quencher, side channel, single point]"
CC(=O)Nc1ccc(NC(=O)c2cc(-c3cc(C)cc(C)c3O)n[nH]2)cc1,–,"inconclusive: 70.8 µM [fluorescent, side channel, single point]"
COC(=O)Nc1ccc(OCc2ccccc2)cc1,inactive: 4.6%,–
CC(NCCCOc1cccc2ccccc12)c1ccccc1 (stereo not drawn),–,"inconclusive: 8.91 µM [quencher, side channel, partial curve]"
O=C(CC12CC3CC(CC(Br)(C3)C1)C2)NCc1ccccc1,–,"inconclusive: 56.2 µM [fluorescent, side channel, single point]"
CSC1=NSC2=NC(=O)/C(=C/c3coc4ccc(O)cc4c3=O)C(=N)N12,–,"inconclusive: 7.94 µM [fluorescent, side channel, full curve]"
O=C(CC1S/C(=N/N=C/c2cccs2)NC1=O)Nc1ccc(Cl)cc1 (stereo not drawn),–,"inconclusive: 14.1 µM [quencher, side channel, single point]"
COc1cc(C(=O)Nc2sc3c(c2C(=O)O)CCC(C)C3)cc(OC)c1OC (stereo not drawn),–,"inconclusive: 70.8 µM [fluorescent, side channel, partial curve]"
Cc1cccc(-c2noc(CCC(=O)Nc3ccc(C(N)=O)cc3)n2)c1,inactive: -1.61%,–
Cc1ccc2occ(/C=N/NC(=O)c3ccccc3O)c(=O)c2c1,–,"inconclusive: 14.1 µM [fluorescent, side channel, single point]"

# Filtered by structure: the compounds so far containing a thiophene ring, fused or not
SMILES,"activity change, negative = inhibition",Potency
CCc1cc[n+](C2=C([O-])c3ccccc3C(=O)/C2=N\S(=O)(=O)c2cccs2)cc1,–,"inconclusive: 70.8 µM [inhibitor, single point]"
CN1CCc2c(sc(N)c2C(N)=O)C1,–,"inconclusive: 1.41 µM [fluorescent, side channel, full curve, poor fit]"
COc1ccccc1C1CCN(C(=O)c2cccs2)CC1,inactive: 3.24%,–
Cc1ccsc1/C=C1/C(=O)NN(c2ccccc2)C1=O,–,"inconclusive: 31.6 µM [inhibitor, single point]"
COc1ccc(N2CCN(Cc3nc4sc(C)c(C)c4c(=O)[nH]3)CC2)cc1,–,"inconclusive: 89.1 µM [inhibitor, single point]"
O=C(CC1S/C(=N/N=C/c2cccs2)NC1=O)Nc1ccc(Cl)cc1 (stereo not drawn),–,"inconclusive: 14.1 µM [quencher, side channel, single point]"
COc1cc(C(=O)Nc2sc3c(c2C(=O)O)CCC(C)C3)cc(OC)c1OC (stereo not drawn),–,"inconclusive: 70.8 µM [fluorescent, side channel, partial curve]"
